“Also recorded” adds a separate entry of the source. At least one compound was matched to its structure with a doubt left.
Tests used:
C2C12-derived myotubes [1] = experiment: ATP production (luciferin/luciferase) in caffeine-stimulated C2C12-derived myotubes; type: cell-based, mouse; details: oleuropein 15 minutes, then 5 mM caffeine 10 minutes, vs control cells, P<0.05
C2C12-derived myotubes [2] = experiment: Mitochondrial calcium rise (mitochondrial aequorin) in caffeine-stimulated C2C12-derived myotubes; type: cell-based, mouse; details: 50 μM oleuropein, evoked by 5 mM caffeine, vs 0.5 mM calcium in the medium, P<0.05
Source text: To test the effect of Oleuropein, its metabolites and calcium supplementation/deficiency in living cells, the inventors measured mitochondrial calcium elevation in HeLa cells and in myotubes differentiated from both mouse C2C12 cells and human primary adult muscle cells. HeLa cells and C2C12 cells were purchased from ATCC. Human Skeletal Muscle Myoblasts (HSMM) were purchased from Lonza. HSMM were isolated from the upper arm or leg muscle tissue of normal donors and used after the second passage. HeLa cells were seeded in 96-well plates at a density of 50000 cells per well in minimal essential medium (DMEM, Gibco), high glucose, +10% fetal calf serum. C2C12 cells were seeded in 96-well plates at a density of 8000 cells per well in DMEM high glucose (Gibco)+10% fetal calf serum. Myotubes were differentiated from C2C12 cells by growing the cells in DMEM containing 2% horse serum, for 4 days. HSMM were seeded in 96-well plates at a density of 8000 cells per well in DMEM/F-12 (Gibco). […]
For treatment, compounds were directly added to the cell culture or myotubes cultures 2 hours before measurements. Luminescence was measured at the Cytation 3 cell imaging reader (Biotek) or at the FLIPR Tetra Aequorin (Molecular Devices). […] Custom module analysis based on Excel (Microsoft) and GhaphPad Prism 7.02 (GraphPad) software was used for quantification.

[3] = test system: myotubes differentiated from human skeletal muscle myoblasts (HSMM); experiment: Mitochondrial calcium rise (mitochondrial aequorin) in caffeine-stimulated HSMM myotubes; type: cell-based; details: 10 μM compound, evoked by 5 mM caffeine, vs control cells, P<0.05
[4] = test system: human skeletal muscle myotubes; experiment: Oxygen consumption (Seahorse XF96), ATP-synthase-dependent respiration in human skeletal muscle myotubes; type: cell-based; details: HSM myotubes, 10 μM compound, stimulated with 10 μM epibatidine, oligomycin; vs control, P<0.05
Hela cells = experiment: Mitochondrial calcium rise (mitochondrial aequorin) in histamine-stimulated Hela cells; type: cell-based; details: oleuropein 10 μM, evoked by 100 μM histamine, vs control cells, P<0.05

SMILES | ATP production (C2C12-derived myotubes [1]) | integrated mitochondrial calcium rise in calcium deficiency condition (C2C12-derived myotubes [2]) | integrated mitochondrial calcium rise [3] | ATP-synthase-dependent component of the respiration [4] | integrated mitochondrial calcium rise (Hela cells)
C/C=C1/[C@H](O[C@@H]2O[C@H](CO)[C@@H](O)[C@H](O)[C@H]2O)OC=C(C(=O)OC)[C@H]1CC(=O)OCCc1ccc(O)c(O)c1 [oleuropein] | increases ATP production | rescues mitochondrial activation in calcium depletion or deficiency condition; also recorded: rescues mitochondrial activation in calcium deficiency condition | activates mitochondrial calcium; also recorded: enhances mitochondrial calcium | boost the ATP-synthase-dependent component of the respiration | increases mitochondrial calcium elevation
OCCc1ccc(O)c(O)c1 [hydroxytyrosol, 3,4-dihydroxyphenylethanol] |  |  |  | boost the ATP-synthase-dependent component of the respiration | 
